Measured values reported in article PMC6906326.
No constants are given. Whether binding was seen depends on the method and setting. Binding seen in cells or lysates may run through a third protein. Some entries that bind do so weakly or less than the wild type.

The chains behind the UniProt entries cited, without tags or fusion partners.
UniProt P46937: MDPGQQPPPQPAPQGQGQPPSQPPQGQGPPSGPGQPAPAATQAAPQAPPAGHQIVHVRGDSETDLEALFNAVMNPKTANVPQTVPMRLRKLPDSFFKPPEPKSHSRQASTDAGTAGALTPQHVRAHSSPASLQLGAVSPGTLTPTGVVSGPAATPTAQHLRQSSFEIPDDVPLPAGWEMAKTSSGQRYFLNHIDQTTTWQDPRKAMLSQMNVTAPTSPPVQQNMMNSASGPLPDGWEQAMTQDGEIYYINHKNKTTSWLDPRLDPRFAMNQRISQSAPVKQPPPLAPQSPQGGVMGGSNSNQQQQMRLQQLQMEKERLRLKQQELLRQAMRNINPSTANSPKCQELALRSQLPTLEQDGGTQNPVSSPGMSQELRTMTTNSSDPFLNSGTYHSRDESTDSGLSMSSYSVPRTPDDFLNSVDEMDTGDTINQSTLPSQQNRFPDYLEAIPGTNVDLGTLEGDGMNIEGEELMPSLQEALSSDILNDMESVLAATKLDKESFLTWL
UniProt O95863: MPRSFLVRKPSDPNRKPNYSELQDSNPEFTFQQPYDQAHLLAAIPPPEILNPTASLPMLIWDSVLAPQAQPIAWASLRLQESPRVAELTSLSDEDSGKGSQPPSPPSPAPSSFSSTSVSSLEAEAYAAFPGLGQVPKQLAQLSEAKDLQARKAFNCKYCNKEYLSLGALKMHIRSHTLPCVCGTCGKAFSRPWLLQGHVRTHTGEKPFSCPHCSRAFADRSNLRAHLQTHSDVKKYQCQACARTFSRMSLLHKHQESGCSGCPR
UniProt Q15672: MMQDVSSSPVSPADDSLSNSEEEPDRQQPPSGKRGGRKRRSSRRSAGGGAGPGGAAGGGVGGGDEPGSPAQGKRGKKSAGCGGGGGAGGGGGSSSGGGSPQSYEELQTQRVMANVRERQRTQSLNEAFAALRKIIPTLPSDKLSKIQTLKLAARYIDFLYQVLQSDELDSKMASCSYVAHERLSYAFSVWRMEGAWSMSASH

Molecular target: YAP1 (human (endogenous in MKN28 and AGS)) (UniProt P46937)
Experiment: co-IP; endogenous proteins from MKN28 and AGS lysates; protein A/G magnetic beads pre-incubated with anti-YAP1 or anti-snail1 antibody at 4 °C, washed three times with extraction buffer, western blot; also done after sh-CLDN6 knock-down (YAP1-snail1 interaction became weak)

binding	Substance
binds	snail1 (from UniProt O95863 1-264)
no binding	twist1 (from UniProt Q15672 1-202)
